This experiment deals with BDF1 mice, P388 leukemia ip, median survival T/C. Description: NCI In Vivo Anticancer Drug Screen. Data for tumor model P388 Leukemia (intraperitoneal) in B6D2F1 (BDF1) mice. Conditions: T/C endpoint: median survival time, higher T/C = longer survival. An outline of the steps:
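T/C = treated-group survival ÷ vehicle-control survival; tumour transplanted into mice before dosing.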

[1] abbreviates: dose: 200.0 mg/kg/injection, schedule: Q01DX009 (ip), vehicle: Klucel (hydroxypropylcellulose) (HPC).
Setting [2] is: dose: 25.0 mg/kg/injection, schedule: Q01DX009 (ip), vehicle: Klucel (hydroxypropylcellulose) (HPC).
Where [3] appears, read: dose: 50.0 mg/kg/injection, schedule: Q01DX005 (ip), vehicle: saline with Tween-80.
The mark [4] stands for this setting: dose: 100.0 mg/kg/injection, schedule: Q01DX005 (ip), vehicle: saline with Tween-80.
[5] abbreviates: dose: 200.0 mg/kg/injection, schedule: Q01DX005 (ip), vehicle: saline with Tween-80.

The list is a part of this screen's results and no random one: it gathers tests that were run many times, whatever their T/C, doses with no T/C, and many T/C values between a quarter and a half above the control. Further doses and runs are listed elsewhere. T/C: endpoint of the treated group in % of that of the vehicle group. Some entries give survivors of the animals treated and no T/C: the source files T/C as zero there, which appears to mark a toxic dose or a test without result, not a measured value. Some doses without a T/C left all or most animals alive at the check, yet need not have been tolerated: survival well below the control is almost never listed, so the zero probably covers shortened survival too. Survivors were counted at the toxicity check, usually on the fifth day, unless a day is given; later deaths do not show. Schedule codes are those of the source, taken here to give the interval after Q, in days (D) or hours (H), and the number of doses after X. Some entries were tested several times; the results are listed from low to high. For survival time, the PubChem record calls one and a half times the control and up active, and a quarter to a half above the control has no call in these data; cut-offs in other NCI protocols can differ. Some T/C values carry the count of animals alive at the toxicity check (mostly the fifth day); without a count, all were alive then.

Regarding `Cc1ccc(CNc2ccc(F)cc2)cc1`, under “dose: 400.0 mg/kg/injection, schedule: Q01DX009 (ip), vehicle: other”, the T/C is 140 % of control. For the compound `CCOC(=O)CNC(=O)N(CC)C12CC3CC(CC(C3)C1)C2`, the T/C under setting [1] was 136 % of control [5 of 6 alive]. As for `O=C(NS(=O)(=O)c1ccc(Cl)cc1)c1ccccc1`, under “dose: 100.0 mg/kg/injection, schedule: Q01DX009 (ip), vehicle: saline with Tween-80”, the survivor count was 5 of 6.

On to `O=C(Nc1ccc(NC(=O)Nc2ccc(C3=NCCCN3)cc2)cc1)Nc1ccc(C2=NCCCN2)cc1`, for which the T/C (dose: 40.0 mg/kg/injection, schedule: Q04DX003 (ip), vehicle: saline) is 140 % of control. Take `CNC(=O)OCc1c(COC(=O)NC)c(-c2ccc(Cl)cc2)n2c1CCC2`: the T/C (dose: 12.5 mg/kg/injection, schedule: Q01DX009 (ip), vehicle: Klucel (hydroxypropylcellulose) (HPC)) is 129 % of control and the T/C under setting [2] is 135 % of control. As for `O=c1oc2c(CN3CCCC3)c(O)ccc2c2c1CCCC2`, the survivor count was 1 of 6 (dose: 64.0 mg/kg/injection, schedule: Q01DX009 (ip), vehicle: Klucel (hydroxypropylcellulose) (HPC)); 0 of 6 (dose: 128.0 mg/kg/injection, schedule: Q01DX009 (ip), vehicle: Klucel (hydroxypropylcellulose) (HPC)); 0 of 6 (dose: 256.0 mg/kg/injection, schedule: Q01DX009 (ip), vehicle: Klucel (hydroxypropylcellulose) (HPC)). For `O=C1Cc2ccc3c(c2O1)C(=O)c1ccccc1C3=O`, the T/C (dose: 400.0 mg/kg/injection, schedule: Q04DX002 (ip), vehicle: saline with Tween-80) was 135 % of control.

On to `COc1cccc(/C=N/NC(=O)C[n+]2ccccc2)c1OC`, for which the survivor count (dose: 100.0 mg/kg/injection, schedule: Q04DX003 (ip), vehicle: saline with Tween-80) is given as 5 of 6 and the survivor count (dose: 200.0 mg/kg/injection, schedule: Q04DX003 (ip), vehicle: saline with Tween-80) was 0 of 6. Regarding `CC[C@H](C)c1occ2c(O)c(C(=O)O)c(=O)cc-2c1C`, the survivor count was 3 of 3 (dose: 50.0 mg/kg/injection, schedule: Q01DX009 (ip), vehicle: Klucel (hydroxypropylcellulose) (HPC)); 0 of 3 (dose: 100.0 mg/kg/injection, schedule: Q01DX009 (ip), vehicle: Klucel (hydroxypropylcellulose) (HPC)); 0 of 3 under setting [1]. `COC1=CC(=O)C=C(OC)C1=O`: the survivor count (dose: 16.0 mg/kg/injection, schedule: Q01DX010 (ip), vehicle: saline) is on record as 3 of 6.

`NC(N)=NC(N)=Nc1ccc(-c2ccc(N=C(N)N=C(N)N)cc2)cc1`: the T/C (dose: 6.25 mg/kg/injection, schedule: Q01DX009 (ip), vehicle: saline with Tween-80) is 125 % of control. `CC(CC(=O)O)C(C(=O)O)C(=O)O` (stereo not given): the T/C (dose: 6.25 mg/kg/injection, schedule: Q01DX009 (ip), vehicle: water) is 128 % of control and the T/C (dose: 50.0 mg/kg/injection, schedule: Q01DX009 (ip), vehicle: water) is 126 % of control. Further, for the setting “dose: 400.0 mg/kg/injection, schedule: Q04DX003 (ip), vehicle: water”, the survivor count is listed as 1 of 6.

With `CCCNCc1c2c(O)c3c(O)c(C)c4c(c3c1O)C(=O)C(C)(O/C=C/C(OC)C(C)C(OC(C)=O)C(C)C(O)C(C)C(O)C(C)/C=C/C=C(/C)C(=O)N2)O4` (stereo not given), the survivor count (dose: 200.0 mg/kg/injection, schedule: Q01DX009 (ip), vehicle: saline with Tween-80) is 6 of 6. Take `C1=C(CC2=C[P+](c3ccccc3)(c3ccccc3)C=C(c3ccccc3)O2)OC(c2ccccc2)=C[P+]1(c1ccccc1)c1ccccc1`: the survivor count reads like this: under setting [3], 1 of 5; under setting [4], 0 of 5; under setting [5], 0 of 5. Consider `CC(C)(C)OC(=O)N/N=C1\CC2CCC1C2` (stereo not given), for which the survivor count by setting is: (dose: 80.0 mg/kg/injection, schedule: Q01DX009 (ip), vehicle: Klucel (hydroxypropylcellulose) (HPC)) 5 of 6; (dose: 185.0 mg/kg/injection, schedule: Q04DX003 (ip), vehicle: Klucel (hydroxypropylcellulose) (HPC)) 4 of 6. Consider `CN(C)[C@@H]1C(=O)C(C(N)=O)=C(O)[C@@]2(O)C(=O)C3=C(O)c4c(O)ccc(Cl)c4[C@@](C)(O)[C@H]3C[C@@H]12`, for which the T/C reads like this: (dose: 50.0 mg/kg/injection, schedule: Q01DX009 (ip), vehicle: saline) 135 % of control; (dose: 100.0 mg/kg/injection, schedule: Q01DX009 (ip), vehicle: saline) 125 % of control; (dose: 132.0 mg/kg/injection, schedule: Q01DX009 (ip), vehicle: saline) 127 % of control; (dose: 200.0 mg/kg/injection, schedule: Q01DX009 (ip), vehicle: saline) 127 and 140 % of control. Moreover, the survivor count (dose: 300.0 mg/kg/injection, schedule: Q01DX009 (ip), vehicle: saline) is 0 of 6 and 1 of 6.

On to `COC1C(O)C(OC2CCC3(C)C(CCC4C3CCC3(C)C(C5=CC(=O)OC5)CCC43O)C2)OC(C)C1OC(C)=O` (stereo not given), for which the T/C (dose: 14.0 mg/kg/injection, schedule: Q01DX009 (ip), vehicle: saline with Tween-80) was 130 % of control. For the compound `CC(=O)NC1C([Se][As](C)C)OC(COC(C)=O)C(OC(C)=O)C1OC(C)=O` (stereo not given), the T/C (dose: 12.5 mg/kg/injection, schedule: Q01DX009 (ip), vehicle: saline with Tween-80) is 129 % of control. For the compound `CC(C)(C)c1ccc2c(cc[n+]3ccccc23)c1`, the T/C (dose: 6.25 mg/kg/injection, schedule: Q01DX005 (ip), vehicle: saline with Tween-80) is 131 % of control. In addition, the survivor count (dose: 12.5 mg/kg/injection, schedule: Q01DX005 (ip), vehicle: saline with Tween-80) is on record as 0 of 5. Turning to `NOc1ccc([N+](=O)[O-])cc1[N+](=O)[O-]`, the survivor count is listed as 6 of 6 (dose: 16.5 mg/kg/injection, schedule: Q01DX009 (ip), vehicle: Klucel (hydroxypropylcellulose) (HPC)) and 0 of 6 (dose: 55.0 mg/kg/injection, schedule: Q01DX009 (ip), vehicle: Klucel (hydroxypropylcellulose) (HPC)). Also, the T/C under setting [2] is 125 % of control. As for `CC1=NN(c2ccccc2)C(=O)C1=Nc1c(C)[nH]n(-c2ccccc2)c1=O`, the survivor count (dose: 15.0 mg/kg/injection, schedule: Q01DX009 (ip), vehicle: saline with Tween-80) is listed as 6 of 7.

As for `CC(C)=CC[P+](CP(c1ccccc1)c1ccccc1)(c1ccccc1)c1ccccc1`, the survivor count under setting [3] is on record as 0 of 6, the survivor count under setting [4] is given as 0 of 6 and the survivor count under setting [5] was 0 of 6. For the compound `Oc1cc(OCCCc2ccc(F)cc2)cc2ccc3ccccc3c12`, the survivor count (dose: 400.0 mg/kg/injection, schedule: Q04DX003 (ip), vehicle: saline with Tween-80) was 1 of 6. On to `CCOc1ccc(S(=O)(=O)c2ccc(C)cc2)c2c1no[n+]2[O-]`, for which the survivor count is, setting by setting: (dose: 30.0 mg/kg/injection, schedule: Q01DX009 (ip), vehicle: saline with Tween-80) 7 of 7; (dose: 60.0 mg/kg/injection, schedule: Q01DX009 (ip), vehicle: saline with Tween-80) 7 of 7.

(Values after PubChem BioAssay AID328 (DTP/NCI, 2004).)
